These are yes or no findings as the source states them, for the method shown. Some results given as binding are weak or reduced against the parent protein; the word gives no strength.
Molecular target: recombinant human histone H1^o (human) (UniProt P07305)
Assay: cross-linking; dimethyl suberimidate (1/10 volume of 10 mg/ml) added to H1, HMGB1 or 1:1 H1/HMGB1 mixtures, proteins ~1 µM, 0.05-0.15 M NaCl, 10 mM sodium phosphate pH 7.5, 24°C, different times; 1 mM DTT for reduced HMGB1; SDS/15%-PAGE, silver stain; both purified

Amino acid sequences for entries named in this document (tags omitted).
UniProt P07305: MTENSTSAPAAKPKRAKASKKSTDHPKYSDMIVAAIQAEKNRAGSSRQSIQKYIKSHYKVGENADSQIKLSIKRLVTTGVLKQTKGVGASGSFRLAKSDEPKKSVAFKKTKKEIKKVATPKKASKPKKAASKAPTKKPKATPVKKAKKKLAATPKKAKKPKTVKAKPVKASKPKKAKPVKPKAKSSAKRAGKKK

binding: binds
Substance: recombinant human histone H1^o (from UniProt P07305 1-194) (other; other documents disagree on this pair)
